Laboratory results: publication PMC4150809
Results are given in words; binding and its absence hold for the method and conditions named. In cells and extracts the contact can be indirect. Some binding calls cover weakened binding; strength is not graded here.

Protein sequences, listed by entry. Tags and fused reporters are not part of them. Residues count along the entry.
GST fusion protein containing amino acids 154-239 of LYAR (Q9NX58, residues 154-239): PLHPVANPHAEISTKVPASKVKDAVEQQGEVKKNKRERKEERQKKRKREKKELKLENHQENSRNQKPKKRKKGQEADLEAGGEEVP

Key:
GST-PRMT5 fusion protein = GST-PRMT5 fusion protein (UniProt O14744); experiment: pull-down; purified GST-PRMT5 pre-adsorbed to glutathione-sepharose beads, incubated with 35S-labeled in vitro transcribed and translated LYAR; autoradiography after SDS-PAGE; only the target purified
[1] = molecular target: LYAR (human homologue of mouse Ly-1 antibody reactive clone) (human (endogenous in K562)) (UniProt Q9NX58); experiment: co-IP; endogenous proteins from K562 cellular extract, immunoprecipitation with anti-LYAR antibody, western blot
[2] = molecular target: GST fusion protein containing amino acids 154-239 of LYAR (human) (UniProt Q9NX58); experiment: pull-down; purified GST fusions of LYAR fragments pre-adsorbed to glutathione-sepharose beads, incubated with PRMT5-overexpressing K562 cell lysate; western blot with anti-PRMT5 antibody; only the target purified

Substance: 35S-labeled in vitro transcribed and translated LYAR (from UniProt Q9NX58 1-379)
- binding (GST-PRMT5 fusion protein): binds

Substance: PRMT5 (endogenous) (from UniProt O14744 1-637) (enzyme)
- binding [1]: binds

Substance: Flag-tagged PRMT5 (from UniProt O14744 1-637) (enzyme)
- binding [2]: binds
